Experimental data reported in US20220354827A1 (priority 2019, published 2022).

Test system: wild-type (WT) mice

O=C1CN(/N=C/c2ccc(-c3ccc([N+](=O)[O-])cc3)o2)C(O)=N1 [dantrolene]
hippocampal-dependent memory (CFC) vs untreated controls (IN-DAN and SQ-DAN, 6 and 11 months of age): no significant differences | hippocampal-independent memory (FC-cued) (all ETG and LTG groups, both ages): no significant differences
